At least one structure is not confirmed: it was looked up by name or label, or the drawing left a doubt.
Tests used:
thrombocytes = assay: ADP-induced aggregation of thrombocytes in vitro (Born method, plasma enriched with thrombocytes); type: cell-based, rabbit; conditions: 10^−6 M, 3-minute incubation, ADP 10^−5 M; control 52.8 ± 1.8
Description: The aggregation of thrombocytes was studied by the Born method based on determination of the changes in the optical density of plasma enriched with thrombocytes after its incubation with an aggregation inductor.
Adenozinediphosphoric acid (ADP) was selected as an aggregation inductor, which in fact is an aggregation generator. Use was made of a sample (registration number 885) of the Sigma Diagnostics Company (USA) in final concentration of 10^−5 M.
The experiments were carried out on male rabbits of the “Chinchilla” breed having a mass of 2.7±0.3 kg. 18-24 hours prior to the experiment they were deprived of feed while preserving free access to water. […]
The measurements of the optical density of the samples were made on two-channel aggregometer of the “Chronolog” Company (USA). […] The index of maximum amplitude of aggregation (MA) in percent of a fall of the plasma optical density under effect of the aggregation inductor was recorded. […]
The process of aggregation of thrombocytes was recorded with the help of a computer; on the monitor screen the there were depicted curves reflecting changes of the optical density of the plasma enriched which was taken as a standard 100% compared to the optical density of the non-thrombocyte plasma taken for 0% content of thrombocytes. […]

[1] = Chronic toxicity of suppositories: indexes of peripheral blood; type: in vivo; design: Thrombocytes: unit not given here; conditions: male rats, suppositories rectally, 500 mg/kg, 1 month

With `Nc1cnc2c(=O)[nH][nH]c(=O)c2n1.[Na]` [Compound 28, sodium salt of 2-amino-pyrazine[2,3-d]-6H-pyridazine-5,8-dione] the “MA - drop of optical density, %” value (thrombocytes) was 50.9 d 2.7%.

For `O=C([O-])c1ncnc2c(=O)n([C@@H]3O[C@H](CO)[C@@H](O)[C@H]3O)[nH]c(=O)c12.[Na+]` [Compound 34, sodium salt of 4-carboxy-7-(β-D-ribofuranosile)pyrimido[4,5-D]-6H-pyridazine-5,8-dione], the “Coagulation, time” value ([1]; control 152 ± 10.2) was 165%10 seconds.

In the case of `O=c1[nH][nH]c(=O)c2c(Br)ncnc12.[K]` [Compound 37, potassium salt of 4-bromine-pyrimido[4,5-D]-6H-pyridazine-5,8-dione], the Thrombocytes ([1]; control 707 ± 23) is reported as 671 ± 1 26.

— patent publication US8592421B2, “Cyclic bioisosters of purine system derivatives and a pharmaceutical composition based thereon” (priority 2003, dated 2013)
